Test results from the supplement of paper PMC12823440, “Inhibitors supercharge kinase turnover through native proteolytic circuits” (Nature, 2025).
The other results are listed elsewhere or left out. The calls rarely recur for the same compound in another form.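 Kinases were expressed as nanoluciferase fusions in K562 cells and luminescence was read every 4 h between 2 and 18 h as percent of control, DMSO set to 100% and a positive control to 0%. A time point counts as decreased when the signal drops significantly (2 sigma). The hit call is the authors' own, does not follow from the count of time points alone, and its rule is not shown.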

Amino acid sequences for entries named in this document (tags omitted). A change or cut given only in a name is not applied to a line headed by its entry.
UniProt P29317, whole entry: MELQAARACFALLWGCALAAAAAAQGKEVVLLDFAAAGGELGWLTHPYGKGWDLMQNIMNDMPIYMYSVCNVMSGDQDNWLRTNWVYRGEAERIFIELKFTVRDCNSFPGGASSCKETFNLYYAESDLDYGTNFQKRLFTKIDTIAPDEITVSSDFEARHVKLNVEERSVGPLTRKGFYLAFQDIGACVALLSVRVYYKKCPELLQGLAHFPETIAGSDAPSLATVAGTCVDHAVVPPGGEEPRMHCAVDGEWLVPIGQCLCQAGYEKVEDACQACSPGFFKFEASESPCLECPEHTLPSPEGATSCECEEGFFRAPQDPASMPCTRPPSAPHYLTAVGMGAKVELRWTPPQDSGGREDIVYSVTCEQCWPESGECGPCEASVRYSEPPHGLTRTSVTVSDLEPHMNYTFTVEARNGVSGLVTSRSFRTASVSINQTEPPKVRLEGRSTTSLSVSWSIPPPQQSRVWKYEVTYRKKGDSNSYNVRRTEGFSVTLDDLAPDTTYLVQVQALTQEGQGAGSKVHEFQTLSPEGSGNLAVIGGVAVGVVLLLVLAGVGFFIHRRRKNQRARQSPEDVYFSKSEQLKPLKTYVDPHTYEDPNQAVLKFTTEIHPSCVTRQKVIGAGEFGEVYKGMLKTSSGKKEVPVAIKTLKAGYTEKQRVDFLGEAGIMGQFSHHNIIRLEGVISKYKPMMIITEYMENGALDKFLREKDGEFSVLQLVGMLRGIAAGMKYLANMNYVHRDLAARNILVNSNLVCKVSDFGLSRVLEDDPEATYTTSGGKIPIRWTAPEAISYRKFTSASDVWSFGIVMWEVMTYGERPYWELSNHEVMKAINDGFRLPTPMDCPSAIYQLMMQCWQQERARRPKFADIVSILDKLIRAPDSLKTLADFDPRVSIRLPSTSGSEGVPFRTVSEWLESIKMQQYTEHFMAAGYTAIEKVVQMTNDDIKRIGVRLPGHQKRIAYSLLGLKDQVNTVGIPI
UniProt O75460: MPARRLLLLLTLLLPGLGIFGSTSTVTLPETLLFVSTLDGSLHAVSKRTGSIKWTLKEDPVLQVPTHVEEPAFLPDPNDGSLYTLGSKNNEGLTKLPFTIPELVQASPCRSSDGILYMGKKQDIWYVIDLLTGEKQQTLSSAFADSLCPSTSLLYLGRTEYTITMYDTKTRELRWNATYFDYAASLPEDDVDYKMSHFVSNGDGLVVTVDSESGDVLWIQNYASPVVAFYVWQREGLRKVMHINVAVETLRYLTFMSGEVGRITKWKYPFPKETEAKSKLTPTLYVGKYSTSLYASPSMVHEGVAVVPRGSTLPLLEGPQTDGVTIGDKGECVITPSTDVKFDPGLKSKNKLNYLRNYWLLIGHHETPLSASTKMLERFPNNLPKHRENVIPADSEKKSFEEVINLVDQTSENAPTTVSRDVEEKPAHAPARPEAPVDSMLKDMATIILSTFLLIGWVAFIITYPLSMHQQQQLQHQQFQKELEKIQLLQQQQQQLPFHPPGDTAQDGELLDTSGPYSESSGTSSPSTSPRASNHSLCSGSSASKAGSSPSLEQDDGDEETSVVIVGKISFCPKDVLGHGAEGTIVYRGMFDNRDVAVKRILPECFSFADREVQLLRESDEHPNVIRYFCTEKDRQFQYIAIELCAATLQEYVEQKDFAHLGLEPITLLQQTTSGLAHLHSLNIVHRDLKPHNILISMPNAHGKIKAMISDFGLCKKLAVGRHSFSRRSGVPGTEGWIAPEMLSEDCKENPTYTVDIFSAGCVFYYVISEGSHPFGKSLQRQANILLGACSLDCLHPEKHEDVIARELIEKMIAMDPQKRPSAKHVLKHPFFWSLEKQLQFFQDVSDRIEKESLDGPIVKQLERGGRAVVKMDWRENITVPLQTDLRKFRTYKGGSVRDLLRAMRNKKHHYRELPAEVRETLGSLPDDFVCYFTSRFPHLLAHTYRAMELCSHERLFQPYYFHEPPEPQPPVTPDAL
UniProt P21802, whole entry, looked up: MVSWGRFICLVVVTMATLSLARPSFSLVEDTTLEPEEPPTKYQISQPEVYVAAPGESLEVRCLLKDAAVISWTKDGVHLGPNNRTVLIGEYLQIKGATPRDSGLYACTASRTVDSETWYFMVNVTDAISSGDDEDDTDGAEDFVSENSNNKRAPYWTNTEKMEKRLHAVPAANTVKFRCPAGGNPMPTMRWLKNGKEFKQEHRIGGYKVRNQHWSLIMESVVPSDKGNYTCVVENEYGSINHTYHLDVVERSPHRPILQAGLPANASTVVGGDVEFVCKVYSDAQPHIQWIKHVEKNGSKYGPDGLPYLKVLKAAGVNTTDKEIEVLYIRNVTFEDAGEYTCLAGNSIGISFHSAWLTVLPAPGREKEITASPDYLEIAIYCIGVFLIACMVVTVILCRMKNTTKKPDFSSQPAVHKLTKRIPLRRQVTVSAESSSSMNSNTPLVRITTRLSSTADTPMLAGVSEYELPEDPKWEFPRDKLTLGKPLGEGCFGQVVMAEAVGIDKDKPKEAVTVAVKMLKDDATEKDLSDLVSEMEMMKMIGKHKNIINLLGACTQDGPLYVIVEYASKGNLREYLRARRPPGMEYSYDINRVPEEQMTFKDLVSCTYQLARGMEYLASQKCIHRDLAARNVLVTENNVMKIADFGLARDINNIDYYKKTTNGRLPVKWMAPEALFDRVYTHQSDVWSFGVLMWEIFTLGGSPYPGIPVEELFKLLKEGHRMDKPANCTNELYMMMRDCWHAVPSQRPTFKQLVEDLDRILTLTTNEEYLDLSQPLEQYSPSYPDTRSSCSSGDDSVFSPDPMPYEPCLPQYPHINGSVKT
UniProt P36888, whole entry: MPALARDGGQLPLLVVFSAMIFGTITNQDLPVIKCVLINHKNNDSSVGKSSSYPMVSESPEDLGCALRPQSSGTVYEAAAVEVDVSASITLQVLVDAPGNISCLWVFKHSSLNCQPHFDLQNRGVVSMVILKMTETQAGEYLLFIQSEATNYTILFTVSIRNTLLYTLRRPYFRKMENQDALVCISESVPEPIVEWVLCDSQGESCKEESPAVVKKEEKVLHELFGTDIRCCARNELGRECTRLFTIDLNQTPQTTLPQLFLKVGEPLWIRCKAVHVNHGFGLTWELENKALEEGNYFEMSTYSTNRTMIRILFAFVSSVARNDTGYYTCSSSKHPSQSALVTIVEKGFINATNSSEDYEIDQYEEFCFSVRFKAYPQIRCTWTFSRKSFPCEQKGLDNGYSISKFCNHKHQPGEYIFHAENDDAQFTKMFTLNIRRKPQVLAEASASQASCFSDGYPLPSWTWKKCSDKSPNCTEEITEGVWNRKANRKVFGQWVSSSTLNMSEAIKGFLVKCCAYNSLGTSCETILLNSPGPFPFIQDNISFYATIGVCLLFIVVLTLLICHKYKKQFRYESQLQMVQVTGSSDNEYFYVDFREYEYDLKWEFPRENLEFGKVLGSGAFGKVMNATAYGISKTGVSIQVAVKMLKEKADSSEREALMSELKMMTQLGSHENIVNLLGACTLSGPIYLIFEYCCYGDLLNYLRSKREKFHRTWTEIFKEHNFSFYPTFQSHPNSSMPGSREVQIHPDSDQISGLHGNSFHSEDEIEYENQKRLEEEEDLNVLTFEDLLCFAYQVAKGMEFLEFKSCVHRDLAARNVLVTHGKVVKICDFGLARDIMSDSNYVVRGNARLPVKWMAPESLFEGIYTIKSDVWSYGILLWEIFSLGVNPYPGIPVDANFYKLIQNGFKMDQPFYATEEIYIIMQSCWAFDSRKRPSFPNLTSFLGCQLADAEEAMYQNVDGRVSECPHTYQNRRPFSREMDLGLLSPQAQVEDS
UniProt P06241, whole entry, looked up: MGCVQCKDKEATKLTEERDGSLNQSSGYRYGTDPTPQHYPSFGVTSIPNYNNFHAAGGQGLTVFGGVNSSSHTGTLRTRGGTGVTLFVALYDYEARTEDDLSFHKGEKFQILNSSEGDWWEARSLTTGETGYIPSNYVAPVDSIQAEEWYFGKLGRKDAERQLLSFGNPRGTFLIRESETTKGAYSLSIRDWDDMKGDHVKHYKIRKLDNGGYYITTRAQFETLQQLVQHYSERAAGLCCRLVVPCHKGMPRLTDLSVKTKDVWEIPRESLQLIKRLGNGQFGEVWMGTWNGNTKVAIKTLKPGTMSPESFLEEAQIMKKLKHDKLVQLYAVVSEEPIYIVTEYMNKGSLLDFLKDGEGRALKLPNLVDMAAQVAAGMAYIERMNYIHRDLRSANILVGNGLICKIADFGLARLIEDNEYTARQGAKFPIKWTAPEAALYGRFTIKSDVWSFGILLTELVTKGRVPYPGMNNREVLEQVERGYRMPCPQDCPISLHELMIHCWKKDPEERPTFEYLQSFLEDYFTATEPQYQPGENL
UniProt P49840: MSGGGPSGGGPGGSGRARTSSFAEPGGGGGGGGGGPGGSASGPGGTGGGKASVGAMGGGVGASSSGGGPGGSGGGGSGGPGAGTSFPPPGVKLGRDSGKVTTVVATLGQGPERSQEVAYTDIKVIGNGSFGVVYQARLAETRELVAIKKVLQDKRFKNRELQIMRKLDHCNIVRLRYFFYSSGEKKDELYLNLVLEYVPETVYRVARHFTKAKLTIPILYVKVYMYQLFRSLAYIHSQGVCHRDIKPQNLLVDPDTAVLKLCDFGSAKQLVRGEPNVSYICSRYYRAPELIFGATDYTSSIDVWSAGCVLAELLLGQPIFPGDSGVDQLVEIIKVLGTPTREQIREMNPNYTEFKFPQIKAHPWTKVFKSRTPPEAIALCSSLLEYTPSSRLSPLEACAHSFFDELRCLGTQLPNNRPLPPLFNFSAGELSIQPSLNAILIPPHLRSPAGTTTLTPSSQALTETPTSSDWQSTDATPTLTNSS
UniProt P06239: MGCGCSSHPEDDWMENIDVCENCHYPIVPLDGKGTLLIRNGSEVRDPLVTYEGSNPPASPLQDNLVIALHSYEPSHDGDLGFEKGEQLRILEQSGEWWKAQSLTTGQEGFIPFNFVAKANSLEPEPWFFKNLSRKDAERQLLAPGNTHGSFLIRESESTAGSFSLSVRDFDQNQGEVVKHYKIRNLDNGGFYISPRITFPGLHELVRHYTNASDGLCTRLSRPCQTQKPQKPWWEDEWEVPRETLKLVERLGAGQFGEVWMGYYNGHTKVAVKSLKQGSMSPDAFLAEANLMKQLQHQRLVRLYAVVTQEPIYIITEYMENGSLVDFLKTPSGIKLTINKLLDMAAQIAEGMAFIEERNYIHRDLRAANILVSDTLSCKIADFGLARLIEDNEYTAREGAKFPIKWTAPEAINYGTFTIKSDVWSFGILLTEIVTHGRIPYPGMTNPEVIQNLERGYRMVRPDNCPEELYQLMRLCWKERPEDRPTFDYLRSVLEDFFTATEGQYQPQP
UniProt P53667: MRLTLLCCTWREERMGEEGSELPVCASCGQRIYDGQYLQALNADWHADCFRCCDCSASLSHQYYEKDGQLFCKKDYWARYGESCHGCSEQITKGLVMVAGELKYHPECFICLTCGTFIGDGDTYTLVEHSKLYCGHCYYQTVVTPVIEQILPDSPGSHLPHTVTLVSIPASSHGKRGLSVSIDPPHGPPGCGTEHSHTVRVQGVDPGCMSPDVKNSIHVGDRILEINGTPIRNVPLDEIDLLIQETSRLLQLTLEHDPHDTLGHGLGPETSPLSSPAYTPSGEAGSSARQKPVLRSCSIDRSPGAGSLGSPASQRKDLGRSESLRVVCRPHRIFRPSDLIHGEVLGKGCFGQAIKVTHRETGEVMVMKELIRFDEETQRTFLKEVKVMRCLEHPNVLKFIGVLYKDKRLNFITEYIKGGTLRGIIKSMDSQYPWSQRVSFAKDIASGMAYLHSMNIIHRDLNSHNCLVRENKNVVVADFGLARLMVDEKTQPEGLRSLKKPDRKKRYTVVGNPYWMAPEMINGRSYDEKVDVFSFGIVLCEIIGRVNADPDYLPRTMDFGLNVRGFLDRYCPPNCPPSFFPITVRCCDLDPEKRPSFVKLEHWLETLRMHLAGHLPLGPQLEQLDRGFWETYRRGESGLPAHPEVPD
UniProt P53671: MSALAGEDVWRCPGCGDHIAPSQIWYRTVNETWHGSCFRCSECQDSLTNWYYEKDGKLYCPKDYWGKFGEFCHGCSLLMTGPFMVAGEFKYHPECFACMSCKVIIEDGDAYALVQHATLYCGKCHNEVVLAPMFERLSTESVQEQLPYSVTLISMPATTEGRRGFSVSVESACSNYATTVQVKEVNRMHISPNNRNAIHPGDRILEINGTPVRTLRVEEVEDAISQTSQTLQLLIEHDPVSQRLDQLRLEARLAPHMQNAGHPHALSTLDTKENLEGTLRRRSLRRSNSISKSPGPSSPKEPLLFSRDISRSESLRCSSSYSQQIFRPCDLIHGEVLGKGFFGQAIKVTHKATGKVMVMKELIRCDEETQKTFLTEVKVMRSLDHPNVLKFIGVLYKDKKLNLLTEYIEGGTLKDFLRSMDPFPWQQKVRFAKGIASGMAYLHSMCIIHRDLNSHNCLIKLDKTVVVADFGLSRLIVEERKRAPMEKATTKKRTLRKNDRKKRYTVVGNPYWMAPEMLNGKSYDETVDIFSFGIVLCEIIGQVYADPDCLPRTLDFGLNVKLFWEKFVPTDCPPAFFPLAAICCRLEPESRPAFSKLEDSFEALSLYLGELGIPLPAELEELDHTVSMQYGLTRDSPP

Experiments:
Assay in all cases: number of time points (of 5) at which kinase-Nluc abundance scored as decreased, DMSO-normalised (count); higher = more persistent destabilization
Conditions in all cases: K562; 2-18 h
EGFR_L861Q = EGFR_L861Q (UniProt P00533)
EGFR_T790M = EGFR_T790M (UniProt P00533)
EPHA2 = EPHA2 (UniProt P29317)
ERBB3 = ERBB3 (UniProt P21860)
[1] = biological target: ERBB4_R711C (clone: ERBB4_mut) (UniProt Q15303)
ERN1 = ERN1 (UniProt O75460)
FGFR1 = FGFR1 (UniProt P11362)
FGFR2 = FGFR2 (UniProt P21802)
FGFR3 = FGFR3 (UniProt P22607)
FGR = FGR (UniProt P09769)
FLT3 = FLT3 (UniProt P36888)
FYN = FYN (UniProt P06241)
GSK3A = GSK3A (UniProt P49840)
HER2 = HER2 (UniProt P04626)
INSRR = INSRR (UniProt P14616)
IRAK3 = IRAK3 (UniProt Q9Y616)
JAK1 = JAK1 (UniProt P23458)
LCK = LCK (UniProt P06239)
LIMK1 = LIMK1 (UniProt P53667)
LIMK2 = LIMK2 (UniProt P53671)

Measured: number of time points

CCN1CCN(C(=O)Cc2ccc(Nc3ncc(F)c(Nc4ccc(C(=O)Nc5ccccc5Cl)cc4)n3)cc2)CC1 (2.5 µM)
0: all assays above

C/C(O)=C(\C#N)C(=O)Nc1cc(Br)ccc1Br (10 µM)
0: all assays above

COC[C@H]1OC(=O)c2coc3c2[C@@]1(C)C1=C(C3=O)[C@@H]2CCC(=O)[C@@]2(C)C[C@H]1OC(C)=O [Wortmannin] (2.5 µM)
3: ERBB3 | LIMK2
1: JAK1
2: [1] | FGFR2 | IRAK3 | LIMK1
4: FYN
0: all other assays above

COc1ccc2c(c1)[nH]c1c(C)nccc12 [Harmine] (10 µM)
0: all assays above

C=C[C@H]1CN2CC[C@]3(C(=O)Nc4ccccc43)[C@@H]2C[C@@H]1/C(=C\OC)C(=O)OC [Corynoxeine] (2 µM)
0: all assays above

C[C@H]1CC[C@]2(NC1)O[C@H]1C[C@H]3[C@@H]4CC[C@H]5C[C@@H](O)CC[C@]5(C)[C@H]4CC[C@]3(C)[C@H]1[C@@H]2C [Tomatidine] (2 µM)
0: all assays above

COc1ccc(N(C(=O)Oc2c(C)cccc2C)c2ccnc(Nc3ccc(N4CCN(C)CC4)cc3)n2)c(OC)c1 (2.5 µM)
0: all assays above

O=c1[nH]c2ccccc2n1C1CCN(Cc2ccc(-c3[nH]c4cc5ncnc5cc4nc3-c3ccccc3)cc2)CC1 [AKT inhibitor VIII] (2.5 µM)
0: all assays above

O=C(O)c1sc2cc(Cl)ccc2c1Cl (10 µM)
0: all assays above

C/C=C(/C)C(=O)O[C@H]1[C@@H]2[C@H](C)C(=O)O[C@@H]2C[C@@H](C)[C@@H]2C=CC(=O)[C@]21C [Brevilin A] (2.5 µM)
0: all assays above

O=c1[nH]c2ccccc2n1C1CCN(CCCC(c2ccc(F)cc2)c2ccc(F)cc2)CC1 [Pimozide] (2.5 µM)
0: all assays above
